Measured values taken from publication PMC5752956.
Results are given in words; binding and its absence hold for the method and conditions named. Binding seen in cells or lysates may run through a third protein.

Target: EGFP-STΔ95–111 (Merkel cell polyomavirus)
Test: co-IP; lysates of HEK-293 cells transfected for 24 h with EGFP-tagged ST constructs incubated with GFP-TRAP agarose beads; pulldowns immunoblotted with PP2A Aβ- and PP4C-specific antibodies (endogenous proteins)

B1: catalytic subunit of protein phosphatase 4 (PP4C) (enzyme, UniProt P60510 1-307)
chain: MAEISDLDRQIEQLRRCELIKESEVKALCAKAREILVEESNVQRVDSPVTVCGDIHGQFYDLKELFRVGGDVPETNYLFMGDFVDRGFYSVETFLLLLALKVRYPDRITLIRGNHESRQITQVYGFYDECLRKYGSVTVWRYCTEIFDYLSLSAIIDGKIFCVHGGLSPSIQTLDQIRTIDRKQEVPHDGPMCDLLWSDPEDTTGWGVSPRGAGYLFGSDVVAQFNAANDIDMICRAHQLVMEGYKWHFNETVLTVWSAPNYCYRCGNVAAILELDEHLQKDFIIFEAAPQETRGIPSKKPVADYFL
  binding: no binding
